Assay results published in PubChem BioAssay AID493014 (National Center for Advancing Translational Sciences (NCATS), 2011).
This is one part of the list. Further columns of the screen follow, without active or inactive calls. Compounds called inactive in the main read-out are mostly missing here. Words in brackets tell the shape of the fitted curve; partial curves, single points and poor fits give uncertain potencies.

Assay: qHTS Assay to Find Inhibitors of Chronic Active B-Cell Receptor Signaling
Details: ABC-DLBCL IkBa-CBG/CBR reporter, luminescence ratio (green luciferase fused to IkBa over red control in TMD8 lymphoma cells), 4 h
Summary of the method: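 TMD8 ABC-DLBCL cells carrying doxycycline-inducible green luciferase fused to IkappaBalpha plus unfused red luciferase were exposed to compounds (up to 46 uM) for 4 hrs at 37C. Activity came from the overlap-corrected green/red luminescence ratio.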

[1] = measured here: CBR red luminescence, cell number
[2] = measured here: IkBa-CBG green luminescence

Cc1ccc(OCc2ccccc2Br)c([N+](=O)[O-])n1
AC50 [1]: 22.4 µM [rising, single point]

CCOc1ncccc1C(=O)Nc1ccc(F)c(F)c1
AC50 [1]: 15.8 µM [falling, single point]

Cc1ccc(-c2nc(C)c(C(=O)O)s2)cc1
AC50 [1]: 0.891 µM [falling, full curve]

CC(C)Oc1ccc(C(=O)N/N=C/c2ccc(-c3ccc(S(=O)(=O)Nc4ncccn4)cc3)o2)cc1
AC50 [1]: 4.11 µM [falling, full curve, poor fit]

C=CCOC(=O)C1=C(C)NC(SC)=C(C#N)C1c1cccs1 (stereo unspecified)
AC50 [1]: 11.2 µM [falling, partial curve, poor fit]

CCCCOC(=O)c1nnc(-c2ccccc2)o1
AC50 [1]: 25.1 µM [falling, single point]

CCOc1cc(N2CCOCC2)c(OCC)cc1NC(=O)CSc1ncccn1
AC50 [1]: 2.51 µM [rising, partial curve, poor fit]

CC1=NN(C(=O)c2ccoc2C)C(O)(C(F)(F)F)C1 (stereo unspecified)
AC50 [1]: 22.4 µM [falling, single point]

O=C(NC(=S)Nc1cccc([N+](=O)[O-])c1)c1ccccc1
AC50 [1]: 11.2 µM [falling, partial curve]

CCOC(=O)c1c(C)n(-c2ccccc2)c2ccc(OCCN(C)C)cc12
AC50 [1]: 11.2 µM [falling, single point]

COc1ccc(C(=O)Cn2cnc3ccccc3c2=O)cc1
AC50 [1]: 11.2 µM [falling, single point]

CCC(=O)Oc1ccc(-c2nc(-c3cccnc3)no2)cc1
AC50 [1]: 20 µM [falling, single point]

CN(C)c1ccc(NC(=O)c2ccc(Cn3cc([N+](=O)[O-])cn3)cc2)cc1
AC50 [1]: 22.4 µM [rising, single point]

O=C(NC1CC1)c1ccc(-c2nc3ccccc3s2)s1
AC50 [1]: 6.31 µM [falling, full curve, poor fit]

O=C(Nc1cccc(NC(=O)c2ccco2)c1)c1cnccn1
AC50 [1]: 14.6 µM [falling, partial curve]

COc1ccccc1C(=O)Nc1ccc(S(=O)(=O)Nc2cc(C)nc(C)n2)cc1
AC50 [1]: 29.1 µM [rising, single point]

CCCCOCCCNC(=O)c1ccc(NC(C)=O)cc1
AC50 [1]: 29.1 µM [rising, single point]

CCc1sc(C(=O)Nc2ccc(F)cc2C)cc1C
AC50 [1]: 23.1 µM [falling, partial curve, poor fit]

Cc1ccc(N2C(=O)N(CC(=O)C(C)(C)C)c3ccccc3S2(=O)=O)cc1
AC50 [1]: 25.1 µM [rising, partial curve, poor fit]

Cc1ccc(N2C(=O)C3CCC(C)(C2=O)C3(C)C)cc1 (stereo unspecified)
AC50 [1]: 10 µM [rising, partial curve, poor fit]

c1ccc(Cn2c(CNc3nc4ccccc4n3CCN3CCCCC3)nc3ccccc32)cc1
AC50 [1]: 4.11 µM [falling, full curve, poor fit]

COc1ccc(C(=O)NCCc2ccc(F)cc2)cc1OC
AC50 [1]: 17.8 µM [falling, single point]

CCOC(=O)C1=C(CSc2nc(CC)c(C)cc2C#N)OC(N)=C(C#N)C1c1ccc(OC)cc1 (stereo unspecified)
AC50 [1]: 1.46 µM [falling, partial curve, poor fit]

CN(C)CCCN(C(=O)/C=C/c1cccs1)c1nc2c(F)cccc2s1
AC50 [1]: 12.6 µM [falling, partial curve, poor fit] | AC50 [2]: 12.6 µM [rising, partial curve, poor fit]

CCOC(=O)c1[nH]c(C)c(CC(C)C)c1C
AC50 [1]: 14.1 µM [rising, single point]

CCOC(=O)[C@H]1[C@H]2COc3ccc(C)cc3[C@@H]2N2C(=O)CN(Cc3ccc(Cl)cc3)C(=O)[C@@]12C
AC50 [1]: 6.51 µM [falling, single point]

COc1ccc(C(=O)Nc2ccc3c(c2)OCO3)cc1OC
AC50 [1]: 25.1 µM [falling, partial curve, poor fit]

CCOc1ccc(NC(=S)NNC(=O)CC(C)O)cc1 (stereo unspecified)
AC50 [1]: 0.282 µM [rising, full curve, poor fit]

Cc1ccc(-c2csc(NC(=O)c3ccc(F)cc3)c2C(=O)O)cc1
AC50 [1]: 5.01 µM [falling, partial curve, poor fit]

O=C(c1ccc(F)cc1)[C@@H]1[C@@H](C(=O)c2ccccc2)[C@@]2(C(=O)Nc3ccccc32)[C@H]2c3ccccc3C=CN12
AC50 [1]: 18.4 µM [falling, partial curve, poor fit]

O=C(Cc1cccs1)Nc1ccc2c(c1)C(=O)OC2
AC50 [1]: 0.291 µM [rising, full curve, poor fit]

COc1ccccc1CNC(=O)CCS(=O)(=O)c1ccc2c(c1)CCCN2C(C)=O
AC50 [1]: 35.5 µM [rising, single point]

CC1CCc2nn(CC(=O)Nc3c(F)cc(F)cc3Br)cc2C1 (stereo unspecified)
AC50 [1]: 29.1 µM [falling, single point] | AC50 [2]: 32.6 µM [rising, partial curve, poor fit]

Cc1cc(C(=O)N/N=C/c2cccc([N+](=O)[O-])c2)c(C)o1
AC50 [1]: 1.26 µM [falling, full curve, poor fit]

CC(C)c1ccc(NC(=O)c2ccc(NS(C)(=O)=O)cc2)cc1
AC50 [1]: 12.6 µM [falling, partial curve]

CC1(C(=O)N/N=C/c2cc3c(cc2Br)OCO3)CC1(Br)Br (stereo unspecified)
AC50 [1]: 7.94 µM [falling, partial curve]

Cc1sc2nc(C(C)Sc3nnc(C)n3-c3ccccc3)[nH]c(=O)c2c1C (stereo unspecified)
AC50 [1]: 13 µM [rising, single point]

COc1ccc(N(C(=O)c2ccn[nH]2)C(C(=O)NC2CCCC2)c2ccc(F)cc2)cc1 (stereo unspecified)
AC50 [1]: 35.5 µM [falling, partial curve, poor fit]

Cc1cc(N2CCN(c3ccccn3)CC2)n2c(nc3ccccc32)c1C#N
AC50 [1]: 12.6 µM [rising, partial curve, poor fit]

CCOC(=O)N/N=C/c1ccc(N(CC)CC)cc1O
AC50 [1]: 25.9 µM [rising, single point]

CCC(C)c1ccccc1OCC(=O)NN1C(=O)c2ccccc2C1=O (stereo unspecified)
AC50 [1]: 14.1 µM [rising, partial curve] | AC50 [2]: 17.8 µM [falling, single point]

O=C(C#Cc1ccccc1)NCc1ccccc1F
AC50 [1]: 15.8 µM [falling, single point]

O=C(NC1=C(Nc2ccc(Cl)cc2)C(=O)c2ccccc2C1=O)c1ccccc1
AC50 [1]: 18.4 µM [rising, partial curve, poor fit]

C[C@H]1CN([C@@H](C)CO)C(=O)c2cc(NC(=O)C3CCCCC3)ccc2O[C@H]1CN(C)C(=O)Nc1ccc2c(c1)OCO2
AC50 [1]: 0.0517 µM [rising, full curve, poor fit]

CC(C)N(C(=O)[C@H]1C[C@H](CC(=O)NC(C)(C)C)C(=O)N2CCc3c([nH]c4ccc(Cl)cc34)[C@]12C)C(C)C
AC50 [1]: 18.4 µM [falling, single point]

Cc1ccc(NC(=S)NC(=O)C2CC2)cc1Cl
AC50 [1]: 15.8 µM [falling, partial curve] | AC50 [2]: 35.5 µM [falling, partial curve, poor fit]

Cc1ccc(S(=O)(=O)n2nc(OC(=O)c3cccs3)cc2N)cc1
AC50 [1]: 10 µM [falling, partial curve, poor fit]

COc1ccc2oc(=O)c(C(=O)O)cc2c1
AC50 [1]: 18.4 µM [falling, partial curve] | AC50 [2]: 29.1 µM [rising, partial curve, poor fit]

Cc1cc(C)c(/C=C(\C#N)C(N)=S)c(C)c1
AC50 [1]: 9.2 µM [falling, partial curve]

CCCc1nnc(NC(=O)CCC(=O)NCCc2ccc(OC)c(OC)c2)s1
AC50 [2]: 20.6 µM [falling, partial curve, poor fit]

Cc1cc(OCC(=O)N(Cc2cccs2)C2CCS(=O)(=O)C2)ccc1Cl (stereo unspecified)
AC50 [1]: 12.6 µM [falling, partial curve, poor fit]

CCOC(=O)Cc1csc(NC(=O)c2csc3c2CCCC3)n1
AC50 [1]: 3.55 µM [falling, full curve]

O=C1NC(=Nc2ccccc2)S/C1=C\c1ccccc1
AC50 [1]: 7.08 µM [falling, partial curve, poor fit]

Cc1csc(NC(=O)c2oc3ccccc3c2C)n1
AC50 [1]: 0.517 µM [falling, full curve, poor fit]

Cc1cc(C(=O)NCC2CCCCC2)ccc1[N+](=O)[O-]
AC50 [1]: 6.31 µM [rising, single point]

COc1cccc(N2CCN(C(=O)c3ccc(CSc4nc5ccncc5[nH]4)cc3)CC2)c1
AC50 [1]: 20.6 µM [falling, partial curve]

CC(C)c1ccc(NC(=O)N2CCCC2C(=O)Nc2ccc(-n3cnnn3)cc2)cc1 (stereo unspecified)
AC50 [1]: 11.2 µM [rising, partial curve, poor fit]

COc1cccc(/C=C/C(=O)N(C)CC(=O)Nc2ccc(Cl)c(C(F)(F)F)c2)c1
AC50 [1]: 23.1 µM [falling, single point]

COc1ccc(Nc2nc(C(F)(F)F)nc(C)c2C#N)cc1
AC50 [1]: 29.1 µM [rising, single point]

Cc1ccc(NC(=O)Nc2cccnc2)cc1NC(=O)Nc1cccnc1
AC50 [1]: 2.82 µM [falling, partial curve]

Cc1ccc(O)c(-c2cc(C(=O)Nc3ccc(S(=O)(=O)Nc4nc(C)cc(C)n4)cc3)[nH]n2)c1
AC50 [1]: 2.06 µM [falling, full curve]
